{
  "sequences": {"note": "Amino acid sequences for entries named in this document (tags omitted).", "UniProt Q9ULG1, whole entry": "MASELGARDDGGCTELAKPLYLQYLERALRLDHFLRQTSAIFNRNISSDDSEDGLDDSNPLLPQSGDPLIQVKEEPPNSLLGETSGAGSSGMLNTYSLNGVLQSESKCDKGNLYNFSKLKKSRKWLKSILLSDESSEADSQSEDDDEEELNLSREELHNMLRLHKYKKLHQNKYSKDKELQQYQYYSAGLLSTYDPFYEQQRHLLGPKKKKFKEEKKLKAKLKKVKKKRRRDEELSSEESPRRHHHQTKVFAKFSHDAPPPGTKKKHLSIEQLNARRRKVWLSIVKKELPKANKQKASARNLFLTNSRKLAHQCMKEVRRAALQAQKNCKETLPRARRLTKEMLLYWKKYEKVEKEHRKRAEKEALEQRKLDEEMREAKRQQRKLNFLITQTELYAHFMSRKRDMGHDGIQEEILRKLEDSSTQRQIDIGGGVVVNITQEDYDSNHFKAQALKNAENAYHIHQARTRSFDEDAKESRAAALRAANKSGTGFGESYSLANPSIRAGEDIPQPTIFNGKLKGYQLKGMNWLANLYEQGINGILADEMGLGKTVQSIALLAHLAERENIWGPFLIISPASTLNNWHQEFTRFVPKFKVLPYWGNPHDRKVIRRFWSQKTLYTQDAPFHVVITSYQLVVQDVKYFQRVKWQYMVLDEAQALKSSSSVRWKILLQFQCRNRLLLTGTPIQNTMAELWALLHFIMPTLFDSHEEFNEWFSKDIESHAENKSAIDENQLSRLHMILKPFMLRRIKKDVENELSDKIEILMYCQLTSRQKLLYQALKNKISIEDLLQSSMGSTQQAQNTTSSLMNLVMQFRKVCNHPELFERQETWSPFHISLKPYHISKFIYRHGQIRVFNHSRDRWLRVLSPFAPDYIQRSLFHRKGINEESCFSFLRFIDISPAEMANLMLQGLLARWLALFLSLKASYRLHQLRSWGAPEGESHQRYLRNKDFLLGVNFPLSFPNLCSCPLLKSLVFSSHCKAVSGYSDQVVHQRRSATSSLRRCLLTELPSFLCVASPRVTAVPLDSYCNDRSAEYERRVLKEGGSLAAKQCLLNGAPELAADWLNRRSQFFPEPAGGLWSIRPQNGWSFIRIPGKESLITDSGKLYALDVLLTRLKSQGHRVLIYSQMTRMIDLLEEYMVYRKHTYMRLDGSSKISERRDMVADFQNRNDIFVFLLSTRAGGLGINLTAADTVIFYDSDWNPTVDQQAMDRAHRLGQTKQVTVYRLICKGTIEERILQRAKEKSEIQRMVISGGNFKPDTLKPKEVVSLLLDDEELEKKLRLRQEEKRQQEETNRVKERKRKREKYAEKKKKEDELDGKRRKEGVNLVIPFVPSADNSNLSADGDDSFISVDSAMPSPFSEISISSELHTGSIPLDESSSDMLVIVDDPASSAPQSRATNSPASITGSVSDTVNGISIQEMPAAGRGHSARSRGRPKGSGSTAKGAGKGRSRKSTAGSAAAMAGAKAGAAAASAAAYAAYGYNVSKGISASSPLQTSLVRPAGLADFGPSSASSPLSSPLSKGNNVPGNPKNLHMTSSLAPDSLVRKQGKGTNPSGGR"},
  "source": "paper PMC4948845",
  "key": {"[1]": {"target": "INO80 (HEK293T nuclear extract) (Homo sapiens) (UniProt Q9ULG1)", "test": "competition with a labelled probe", "conditions": "10 mM KCl, 100 mM NaCl, 1 mM EDTA, 10 mM DTT, 1 mM PMSF, 10% glycerol, 1 ug poly(dI-dC), 1 ug tRNA, protein in an extract"}, "[2]": {"target": "INO80 (HEK293T nuclear extract) (Homo sapiens) (UniProt Q9ULG1)", "test": "EMSA supershift", "conditions": "anti-INO80 (ab118787), self-competition almost complete at 1:5; 10 mM KCl, 100 mM NaCl, 1 mM EDTA, 10 mM DTT, 1 mM PMSF, 10% glycerol, 1 ug poly(dI-dC), 1 ug tRNA; protein in an extract; label: 5' Cy3 (probe), unlabeled as competitor"}, "[3]": {"conditions": "vs Cy3-N2, competes at higher concentration (1:5)"}},
  "note": "The exact form of at least one protein or probe is not confirmed. Results from cells or extracts need not show a direct contact. For some of these results: No signal at the amounts used counts as a negative. For some of these results: The comparison behind a weaker result is the experiment's own reference, which may not be listed here.",
  "data": [
    {"sequence": "CCCCGACAGCCCCCCGACAGCCCCCCGACAGCC (double strand) [M6]", "values": [
      {"measurement": "binding result", "setting": "[1]; vs Cy3-N2, no displacement at 1:1, competed out at 1:5, decreased affinity", "result": "binds more weakly"}
    ]},
    {"sequence": "CCCCGGCAGCCCCCCGGCAGCCCCCCGGCAGCC (double strand) [M3]", "values": [
      {"measurement": "binding result", "setting": "[1]; vs Cy3-N2, unable to compete", "result": "no binding"}
    ]},
    {"sequence": "CCCCGTCAGCCCCCCGTCAGCCCCCCGTCAGCC (double strand) [INO80 binding motif, 3 repeats (33-mer)]", "values": [
      {"measurement": "binding result", "setting": "[2]", "result": "binds"}
    ]},
    {"sequence": "CCCCGTCAGTTCCCCGTCAGTTCCCCGTCAGTT (double strand) [M1]", "values": [
      {"measurement": "binding result", "setting": "[1]; vs Cy3-N2, unable to compete", "result": "no binding"}
    ]},
    {"sequence": "CCCCGTCATCCCCCCGTCATCCCCCCGTCATCC (double strand) [M2]", "values": [
      {"measurement": "binding result", "setting": "[1]; [3]", "result": "binds"}
    ]},
    {"sequence": "CCCCGTCCGCCCCCCGTCCGCCCCCCGTCCGCC (double strand) [M5]", "values": [
      {"measurement": "binding result", "setting": "[1]; [3]", "result": "binds"}
    ]},
    {"sequence": "CCCCTTCAGCCCCCCTTCAGCCCCCCTTCAGCC (double strand) [M4]", "values": [
      {"measurement": "binding result", "setting": "[1]; [3]", "result": "binds"}
    ]}
  ]
}
